The other results are listed elsewhere or left out.
Assays:
Test in all cases: log2 fold change, soluble protein after heating vs DMSO (PISA); higher = thermal stabilisation; K562 lysate, 10 uM; active = over 0.2 and 3.5 SD of the protein, either way, in both replicates (recomputed)
[1] = compound: NCC(=O)Nc1ccc(-n2nc(C(F)(F)F)cc2-c2ccc3c(ccc4ccccc43)c2)cc1
How it was run: (§1)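 K562 pellets were dounce-homogenised in PBS pH 7.4 with 1 mM MgCl2, and the crude extract at 1 mg/mL protein was treated with 10 μM compound for 30 min. Aliquots were heated for 3 min across 48°C-58°C, pooled, and brought to 0.5% NP-40 at 4°C; soluble protein was the supernatant after 21,000xg for 90 min. Soluble protein was quantified by TMTpro 16plex LC-MS/MS with channel sums equalised, and reported as log2 fold change in thermal stability against DMSO controls, with values from duplicates.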

The chains behind the UniProt entries cited, without tags or fusion partners. Where a name states a change or a piece, a line headed by the entry shows the natural chain unless it says otherwise.
UniProt Q5EBL8: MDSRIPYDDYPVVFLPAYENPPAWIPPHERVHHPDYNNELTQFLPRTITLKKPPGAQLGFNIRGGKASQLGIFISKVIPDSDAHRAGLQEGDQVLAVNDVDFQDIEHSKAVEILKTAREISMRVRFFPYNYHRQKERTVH
UniProt P49585: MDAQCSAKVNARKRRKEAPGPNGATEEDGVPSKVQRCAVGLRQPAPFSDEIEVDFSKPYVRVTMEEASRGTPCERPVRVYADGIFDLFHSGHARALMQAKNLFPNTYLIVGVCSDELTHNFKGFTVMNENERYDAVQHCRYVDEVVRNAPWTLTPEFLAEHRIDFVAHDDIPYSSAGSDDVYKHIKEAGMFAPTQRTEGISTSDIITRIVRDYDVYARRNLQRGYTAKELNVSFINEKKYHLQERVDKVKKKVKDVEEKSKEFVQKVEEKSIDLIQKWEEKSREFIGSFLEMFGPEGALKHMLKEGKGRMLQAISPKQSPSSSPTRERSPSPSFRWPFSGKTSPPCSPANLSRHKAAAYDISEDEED
UniProt H7BZJ3: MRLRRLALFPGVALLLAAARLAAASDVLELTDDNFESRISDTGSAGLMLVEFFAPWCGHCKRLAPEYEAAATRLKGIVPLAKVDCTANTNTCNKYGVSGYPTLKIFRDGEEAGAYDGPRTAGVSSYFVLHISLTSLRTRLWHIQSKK
UniProt Q01813: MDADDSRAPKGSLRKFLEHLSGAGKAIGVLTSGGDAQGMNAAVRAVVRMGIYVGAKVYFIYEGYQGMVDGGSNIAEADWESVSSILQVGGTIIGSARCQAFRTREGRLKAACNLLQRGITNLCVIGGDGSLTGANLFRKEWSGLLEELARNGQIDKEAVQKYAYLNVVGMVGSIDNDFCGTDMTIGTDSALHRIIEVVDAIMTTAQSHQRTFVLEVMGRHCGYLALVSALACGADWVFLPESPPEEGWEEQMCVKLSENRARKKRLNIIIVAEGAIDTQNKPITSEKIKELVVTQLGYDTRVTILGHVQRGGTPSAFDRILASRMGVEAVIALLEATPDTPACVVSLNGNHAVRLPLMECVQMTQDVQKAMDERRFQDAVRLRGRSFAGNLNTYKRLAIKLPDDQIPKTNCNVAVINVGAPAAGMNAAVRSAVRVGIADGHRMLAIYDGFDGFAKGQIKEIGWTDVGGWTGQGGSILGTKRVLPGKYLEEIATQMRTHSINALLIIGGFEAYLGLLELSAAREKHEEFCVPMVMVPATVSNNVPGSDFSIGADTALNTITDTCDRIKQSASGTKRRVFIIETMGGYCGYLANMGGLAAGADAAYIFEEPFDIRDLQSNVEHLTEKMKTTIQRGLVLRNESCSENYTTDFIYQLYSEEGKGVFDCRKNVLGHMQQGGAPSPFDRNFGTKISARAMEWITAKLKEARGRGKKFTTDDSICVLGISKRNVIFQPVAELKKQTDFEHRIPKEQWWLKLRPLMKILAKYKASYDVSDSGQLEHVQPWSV
UniProt Q15365, whole entry, looked up: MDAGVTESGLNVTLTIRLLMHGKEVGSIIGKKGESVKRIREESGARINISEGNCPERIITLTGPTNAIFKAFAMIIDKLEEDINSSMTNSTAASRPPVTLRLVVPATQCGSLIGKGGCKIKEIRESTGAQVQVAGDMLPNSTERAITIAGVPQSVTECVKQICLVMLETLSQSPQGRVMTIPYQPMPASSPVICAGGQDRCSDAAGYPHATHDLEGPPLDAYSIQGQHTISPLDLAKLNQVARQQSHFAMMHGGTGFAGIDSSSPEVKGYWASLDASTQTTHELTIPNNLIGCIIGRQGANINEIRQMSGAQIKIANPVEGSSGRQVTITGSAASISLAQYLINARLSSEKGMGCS
UniProt P17858: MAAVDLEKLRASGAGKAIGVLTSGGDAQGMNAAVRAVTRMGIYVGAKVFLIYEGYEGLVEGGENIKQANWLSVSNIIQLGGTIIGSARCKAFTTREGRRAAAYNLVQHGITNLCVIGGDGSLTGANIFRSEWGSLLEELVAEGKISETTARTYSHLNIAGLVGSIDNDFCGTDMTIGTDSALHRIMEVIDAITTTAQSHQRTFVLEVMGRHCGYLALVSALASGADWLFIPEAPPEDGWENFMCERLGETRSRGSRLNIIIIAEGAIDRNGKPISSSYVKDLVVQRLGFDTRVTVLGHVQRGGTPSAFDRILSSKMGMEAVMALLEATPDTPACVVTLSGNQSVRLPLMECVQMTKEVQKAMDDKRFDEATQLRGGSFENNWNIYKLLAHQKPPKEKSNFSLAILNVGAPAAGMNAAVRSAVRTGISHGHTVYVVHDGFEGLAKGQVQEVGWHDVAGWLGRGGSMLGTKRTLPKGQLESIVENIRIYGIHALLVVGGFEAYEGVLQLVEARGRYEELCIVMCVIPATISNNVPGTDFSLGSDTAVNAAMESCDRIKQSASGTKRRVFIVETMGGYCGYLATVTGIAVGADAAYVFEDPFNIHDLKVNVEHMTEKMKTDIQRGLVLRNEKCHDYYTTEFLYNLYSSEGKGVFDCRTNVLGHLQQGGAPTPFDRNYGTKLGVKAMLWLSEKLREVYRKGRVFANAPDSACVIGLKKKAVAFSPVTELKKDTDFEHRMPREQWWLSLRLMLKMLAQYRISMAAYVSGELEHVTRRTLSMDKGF

vorinostat = compound: O=C(CCCCCCC(=O)Nc1ccccc1)NO [vorinostat]
How it was run: as §1

silmitasertib = compound: O=C(O)c1ccc2c(c1)nc(Nc1cccc(Cl)c1)c1ccncc12 [silmitasertib]
How it was run: as §1

[2] = compound: O=C1NC(=O)C(c2cnc3ccccn23)=C1c1cn2c3c(cc(F)cc13)CN(C(=O)N1CCCCC1)CC2
How it was run: as §1

entospletinib = compound: c1cn2cc(-c3ccc4cn[nH]c4c3)nc(Nc3ccc(N4CCOCC4)cc3)c2n1 [entospletinib]
How it was run: as §1

Measured: log2 fold change

PDZD11 isoform 2 (UniProt Q5EBL8)
inactive: [1] -0.029 | vorinostat 0.069 | silmitasertib -0.109 | [2] -0.026 | entospletinib -0.048

PCYT1A (UniProt P49585)
inactive: [1] 0.032 | vorinostat 0.023 | silmitasertib -0.012 | [2] -0.124 | entospletinib 0.055

PDIA3 (UniProt H7BZJ3)
inactive: [1] 0.051 | vorinostat 0.103 | silmitasertib 0.161 | [2] 0.043 | entospletinib 0.117

PFKP (UniProt Q01813)
inactive: [1] 0.004 | vorinostat 0.009 | silmitasertib 0.008 | [2] 0.03 | entospletinib 0.049

PCBP1 (UniProt Q15365)
inactive: [1] 0.01 | vorinostat -0.123 | silmitasertib -0.029 | [2] 0.01 | entospletinib 0.001

PFKL isoform 2 (UniProt P17858)
inactive: [1] 0.014 | vorinostat -0.044 | silmitasertib -0.03 | [2] 0.03 | entospletinib 0.09

— the supplement of paper PMC10849652
